From paper PMC2174947
Construct, isoform or probe ends are uncertain for at least one entry. For some assays here: No signal at the amounts used counts as a negative. For some assays here: Results from cells or extracts need not show a direct contact. For some assays here: Tags and fusion partners may be left off the protein sequences shown. For some assays here: A weaker result is weaker than the reference pair of the same experiment. For some assays here: At least one verdict was read from the data and is not stated in words by the source.

By UniProt entry, the sequences of proteins in these tests, tags left out. Residues count along the entry.
UniProt P08047, 2-785: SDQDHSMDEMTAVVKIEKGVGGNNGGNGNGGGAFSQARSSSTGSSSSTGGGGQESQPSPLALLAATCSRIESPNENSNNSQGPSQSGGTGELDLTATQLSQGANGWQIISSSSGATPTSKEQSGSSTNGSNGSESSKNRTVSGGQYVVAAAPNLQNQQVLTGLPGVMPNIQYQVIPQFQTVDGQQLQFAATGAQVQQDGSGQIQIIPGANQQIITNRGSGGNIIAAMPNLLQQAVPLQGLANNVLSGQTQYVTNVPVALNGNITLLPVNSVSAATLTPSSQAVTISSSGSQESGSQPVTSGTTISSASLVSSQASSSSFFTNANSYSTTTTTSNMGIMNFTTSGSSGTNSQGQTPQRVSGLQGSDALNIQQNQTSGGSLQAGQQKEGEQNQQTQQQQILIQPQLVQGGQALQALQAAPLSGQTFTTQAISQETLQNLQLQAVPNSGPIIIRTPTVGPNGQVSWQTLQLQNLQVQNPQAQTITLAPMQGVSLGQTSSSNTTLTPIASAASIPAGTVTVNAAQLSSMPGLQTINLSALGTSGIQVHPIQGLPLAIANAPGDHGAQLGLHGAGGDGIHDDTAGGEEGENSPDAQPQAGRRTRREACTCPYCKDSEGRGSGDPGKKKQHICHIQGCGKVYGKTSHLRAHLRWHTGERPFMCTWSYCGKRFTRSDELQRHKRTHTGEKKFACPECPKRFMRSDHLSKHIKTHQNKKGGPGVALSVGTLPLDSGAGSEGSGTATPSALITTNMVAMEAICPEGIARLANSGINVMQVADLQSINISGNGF
UniProt P08047, whole entry: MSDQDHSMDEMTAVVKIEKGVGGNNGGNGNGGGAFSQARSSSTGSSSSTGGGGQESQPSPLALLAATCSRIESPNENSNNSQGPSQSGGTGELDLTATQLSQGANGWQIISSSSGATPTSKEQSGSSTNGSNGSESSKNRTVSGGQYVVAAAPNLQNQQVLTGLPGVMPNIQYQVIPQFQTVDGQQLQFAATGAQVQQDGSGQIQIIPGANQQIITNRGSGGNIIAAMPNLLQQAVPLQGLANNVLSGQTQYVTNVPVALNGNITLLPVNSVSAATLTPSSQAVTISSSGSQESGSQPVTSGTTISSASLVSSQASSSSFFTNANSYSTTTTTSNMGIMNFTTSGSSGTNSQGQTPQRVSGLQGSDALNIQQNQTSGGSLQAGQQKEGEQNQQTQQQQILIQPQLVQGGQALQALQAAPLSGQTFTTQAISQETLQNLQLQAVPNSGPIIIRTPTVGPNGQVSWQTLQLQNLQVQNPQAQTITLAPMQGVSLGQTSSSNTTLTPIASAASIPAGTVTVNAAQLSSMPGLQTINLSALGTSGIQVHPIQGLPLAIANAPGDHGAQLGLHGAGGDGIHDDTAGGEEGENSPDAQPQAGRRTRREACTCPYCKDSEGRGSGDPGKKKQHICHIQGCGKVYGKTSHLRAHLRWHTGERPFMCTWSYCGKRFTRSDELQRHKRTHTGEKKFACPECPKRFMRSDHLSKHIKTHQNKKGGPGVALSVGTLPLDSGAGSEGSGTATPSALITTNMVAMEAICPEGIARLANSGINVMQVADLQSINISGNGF

Key:
[1] = target: T1, MAZ (HepG2 nuclear extract) (Homo sapiens) (UniProt P56270); assay: competition with a labelled probe; settings: 200-fold excess vs N1; EMSA: 10 mM Tris-HCl pH 7.5, 50 mM NaCl, 5 mM MgCl2, 1 mM EDTA, 10% glycerol, 1 ug poly(dI-dC), 30 C 30 min; protein in an extract
T1 sequence (looked up, limits assumed): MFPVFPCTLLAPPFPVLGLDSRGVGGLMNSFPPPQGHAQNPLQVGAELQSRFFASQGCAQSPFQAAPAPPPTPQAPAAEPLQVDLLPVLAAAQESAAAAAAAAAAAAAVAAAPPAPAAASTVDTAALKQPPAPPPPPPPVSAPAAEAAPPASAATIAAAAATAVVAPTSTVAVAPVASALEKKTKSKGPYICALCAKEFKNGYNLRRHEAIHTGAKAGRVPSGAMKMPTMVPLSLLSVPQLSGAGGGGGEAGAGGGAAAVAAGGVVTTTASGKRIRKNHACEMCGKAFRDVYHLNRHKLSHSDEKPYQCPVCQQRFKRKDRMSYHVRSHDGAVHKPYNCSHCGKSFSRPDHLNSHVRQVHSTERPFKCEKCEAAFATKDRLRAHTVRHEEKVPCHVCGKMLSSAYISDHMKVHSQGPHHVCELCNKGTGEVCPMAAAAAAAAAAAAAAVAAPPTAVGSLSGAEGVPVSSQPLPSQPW

[2] = target: T1, MAZ (HepG2 nuclear extract) (Homo sapiens); assay: pull-down (DAPA); settings: DAPA: 20 mM HEPES pH 7.6, 10 mM (NH4)2SO4, 1 mM EDTA, 1 mM DTT, 1% Tween 20, 100 mM KCl, 4 C; protein in an extract; label: 5' biotin; letters put together from the description
[3] = target: Sp1 (HepG2 nuclear extract) (Homo sapiens) (UniProt P08047); assay: pull-down (DAPA); settings: DAPA: 20 mM HEPES pH 7.6, 10 mM (NH4)2SO4, 1 mM EDTA, 1 mM DTT, 1% Tween 20, 100 mM KCl, 4 C; protein in an extract; label: 5' biotin; letters put together from the description
Sp1 = Sp1 (UniProt P08047); assay: EMSA; settings: 20-200 ng Sp1; EMSA: 10 mM Tris-HCl pH 7.5, 50 mM NaCl, 5 mM MgCl2, 1 mM EDTA, 10% glycerol, 1 ug poly(dI-dC), 30 C 30 min; recombinant protein; label: 32P 5' end
[4] = target: T1, MAZ (HepG2 nuclear extract) (Homo sapiens); assay: EMSA; settings: anti-MAZ reduces major complex; EMSA: 10 mM Tris-HCl pH 7.5, 50 mM NaCl, 5 mM MgCl2, 1 mM EDTA, 10% glycerol, 1 ug poly(dI-dC), 30 C 30 min; protein in an extract; label: 32P 5' end
GST-MAZΔF34 = GST-MAZΔF34 (UniProt P56270); assay: EMSA; settings: EMSA: 10 mM Tris-HCl pH 7.5, 50 mM NaCl, 5 mM MgCl2, 1 mM EDTA, 10% glycerol, 1 ug poly(dI-dC), 30 C 30 min; recombinant protein; label: 32P 5' end

Sequence	binding result [1]	binding result [2]	other results
GCCAAGAGCCAGACCCTCCCTCTGGGCTCTGAAGGCCCA (double strand) [M15]	no binding	–	–
GCCAAGAGCCAGACCCTCCCTCTGGGCTAAGCTGGCCCA (double strand) [M12]	no binding	–	–
CAAGAGCCAGACCCTCCCTCTGTTAGAGTAGTTAAAC (double strand) [DAPA mut -62/-48]	–	binds more weakly	–
CAAGAGCCAGCAAAGAAAGATGGGCTCTGCTGGCCCA (double strand) [DAPA mut -74/-65]	–	binds more weakly	binding result [3]: binds more weakly
GCCAAGAGCCAGACCCTCCCTCTGGGCAATGCTGGCCCA (double strand) [M11]	no binding	–	–
GCCAAGAGCCAGACCCTCCCTCTGGGCTCAACTGGCCCA (double strand) [M13]	no binding	–	–
GCCAAGAGCCAGACCCTCCCTCTGGGCTCTAATGGCCCA (double strand) [M14]	no binding	–	–
CAAGAGCCAGACCCTCCCTCTGGGCTCTGCTGGCCCA (double strand) [DAPA wt]	–	binds	binding result [3]: binds
GCCAAGAGCCAGACCCTCCCTCTGGGCTCTGCTGGCCCA (double strand) [wt 34-nt EMSA probe]	–	–	binding result (Sp1): binds; binding result [4]: binds; binding result (GST-MAZΔF34): no binding
GCCAAGAGCCAGACCCTCCCTCTGGGAACTGCTGGCCCA (double strand) [M10]	no binding	–	–
